These are yes or no findings as the source states them, for the method shown. Some results given as binding are weak or reduced against the parent protein; the word gives no strength. For some assays here: Where a sequence is shown, tags or fusion partners need not be part of it.
How the values were obtained:
[1] = target: human FcγRIIIA ECD, recombinant (human) (UniProt P08637); test: Octet, recombinant ECD of the receptor
[2] = target: human FcγRIIIA ECD, recombinant (human) (UniProt P08637); test: Octet (ForteBio), receptor ECD loaded on sensor, 5 concentrations
[3] = target: human FcγRIIIA ECD, recombinant (human) (UniProt P08637); test: Octet (ForteBio) biolayer interferometry; recombinant human FcγRIIIA ECD loaded on the sensor; antibody at 5 concentrations (not printed on the sheet)
[4] = target: T1, recombinant human TIGIT extracellular domain (ECD) (human) (UniProt Q495A1); test: ELISA of VHH supernatants after affinity maturation of 1G1-F-A-ERES
T1 sequence: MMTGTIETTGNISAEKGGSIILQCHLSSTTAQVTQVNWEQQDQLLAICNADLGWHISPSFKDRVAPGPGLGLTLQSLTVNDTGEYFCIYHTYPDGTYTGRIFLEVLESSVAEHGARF

Sequences of proteins named here, by UniProt entry; tags and fusion partners are left off. Residues count along the entry.
UniProt P08637, residues 17-208: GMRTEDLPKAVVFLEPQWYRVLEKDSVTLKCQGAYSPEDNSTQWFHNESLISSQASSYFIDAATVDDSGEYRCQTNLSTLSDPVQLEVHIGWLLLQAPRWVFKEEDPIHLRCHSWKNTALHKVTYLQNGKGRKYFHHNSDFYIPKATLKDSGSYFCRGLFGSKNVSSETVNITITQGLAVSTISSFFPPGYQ

[5] = target: T2, human TIGIT (T cell immunoreceptor with Ig and ITIM domains), expressed on cells (human) (UniProt Q495A1); test: whole cell binding to cells stably expressing human TIGIT; EC50 plotted against the IC50 of the blocking ELISA
T2 sequence: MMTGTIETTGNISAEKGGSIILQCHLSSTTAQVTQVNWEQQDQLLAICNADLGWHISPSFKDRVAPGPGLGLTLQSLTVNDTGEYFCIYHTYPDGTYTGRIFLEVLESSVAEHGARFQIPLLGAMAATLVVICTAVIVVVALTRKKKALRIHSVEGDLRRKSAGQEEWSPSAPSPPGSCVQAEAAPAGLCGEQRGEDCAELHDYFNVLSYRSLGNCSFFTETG

[6] = target: T1, recombinant human TIGIT extracellular domain (ECD) (human); test: PVR blocking ELISA: inhibition of PVR (CD155) binding to human TIGIT; IC50 plotted against the EC50 of whole cell binding
[7] = target: T1, recombinant human TIGIT extracellular domain (ECD) (human); test: ELISA, VHH supernatants on h-TIGIT ECD coated plates

B1: 2A3-LT-Fc VPVLL mutant (Fc mutations L235V, F243L, R292P, Y300L and P396L) (Fc fusion)
chain: QVQLVESGGGVVQPGRSLRLSCAASGGSFSSYPMGWFRQAPGKERESVAAISSDLRFTYYADSVKGRFTISRDNSKNTLYLQMNSLRAEDTAVYYCAARTSGVGYYSRAQWYDYWGQGTLVTVSSEPKSCDKTHTCPPCPAPELVGGPSVFLLPPKPKDTLMISRTPEVTCVVVDVSHEDPEVKFNWYVDGVEVHNAKTKPPEEQYNSTLRVVSVLTVLHQDWLNGKEYKCKVSNKALPAPIEKTISKAKGQPREPQVYTLPPSREEMTKNQVSLTCLVKGFYPSDIAVEWESNGQPENNYKTTPLVLDSDGSFFLYSKLTVDKSRWQQGNVFSCSVMHEALHNHYTQKSLSLSPGK
[1]
  binding: binds
[2]
  binding: binds
[3]
  binding: binds

B2: 1G1-1C12 VHH (SEQ ID NO 125) (VHH)
VHH: QVQLVESGGGVVQPGRSLRLSCAASGPSFSSYPMGWFRQAPGKERESVAAISSDLRFTYYADSVKGRFTISRDNSKNTLYLQMNSLRAEDTAVYYCAARDSGSGYYSRKQWYDYWGQGTLVTVSS
[4]
  binding: binds
[5]
  binding: binds
[6]
  binding: binds

B3: 4D5 VHH (VHH)
VHH: VDSGGGAVKAGDSLRLVCSAPGRTHGRAFNEYAMAWFRQGPGKERESVAAISSDGRFTYYAASVKGRFTISKDNAKSAAFLQMNSLKPEDTAVYYCAARDSGSGYYSRAQWYDYWGQGTQVTVSS
[7]
  binding: binds

B4: 10H5 VHH (VHH)
VHH: GGGLVQAGGSLRLACTASDPPFANYETTFKSMAMGWVRHIPGKERELVAATNYNGGRTWYSNSAKARSTISRDNAKNTVYLQMSSLKPEDTAVYYCAAKATEGTTFPSRTYEFWGQGIQVTVSS
[7]
  binding: binds
